Assay results from US10429384B2, “Compositions, kits, and methods for identification, assessment, prevention, and therapy of metabolic disorders” (Dana-Farber Cancer Institute, Inc., priority 2010, dated 2019).
At least one compound was matched to its structure with a doubt left.

Tests used:
[1] = tested on: Q286P mutant of PPAR gamma; assay: TNF-α-induced phosphorylation of PPAR gamma in 3T3-L1 adipocytes expressing Q286P mutant; assay type: cell-based; conditions: mutant that cannot bind ligands; FIG. 5A
[2] = tested on: PPAR gamma-null fibroblasts expressing WT PPAR gamma; assay: Microarray analysis of differentiated PPAR gamma-null fibroblasts expressing wild type PPAR gamma; assay type: cell-based, mouse; conditions: 1 μM, 24 hours; FIG. 5F
From the text: To create refined gene sets regulated by cdk5 phosphorylation of PPAR gamma, p-value as well as fold-change of gene expression in WT versus S273A mutant cells was first calculated, and—log p-value versus log2 fold-change was plotted.

## CN(CCOc1ccc(CC2SC(=O)NC2=O)cc1)c1ccccn1 (stereo not drawn) [rosiglitazone]
[1]
  inhibition of cdk5 phosphorylation of Q286P mutant PPAR gamma: could not interfere with the cdk5 phosphorylation
[2]
  expression of gene cluster "c" (genes increased by the cdk5 site mutation): increased essentially all of these genes
  expression of gene group "a" (genes activated by cdk5 phosphorylation of PPAR gamma): suppressed
